Laboratory results as given in paper doi:10.1101/2021.10.29.466147 (bioRxiv, 2021).
Results are given in words; binding and its absence hold for the method and conditions named. Some results given as binding are weak or reduced against the parent protein; the word gives no strength. For part of these data: Sequences can lack the tags named with a protein.

T1: Smc2 K639C (cross-linkable hinge condensin) (S. cerevisiae) (UniProt P38989)
T1 sequence: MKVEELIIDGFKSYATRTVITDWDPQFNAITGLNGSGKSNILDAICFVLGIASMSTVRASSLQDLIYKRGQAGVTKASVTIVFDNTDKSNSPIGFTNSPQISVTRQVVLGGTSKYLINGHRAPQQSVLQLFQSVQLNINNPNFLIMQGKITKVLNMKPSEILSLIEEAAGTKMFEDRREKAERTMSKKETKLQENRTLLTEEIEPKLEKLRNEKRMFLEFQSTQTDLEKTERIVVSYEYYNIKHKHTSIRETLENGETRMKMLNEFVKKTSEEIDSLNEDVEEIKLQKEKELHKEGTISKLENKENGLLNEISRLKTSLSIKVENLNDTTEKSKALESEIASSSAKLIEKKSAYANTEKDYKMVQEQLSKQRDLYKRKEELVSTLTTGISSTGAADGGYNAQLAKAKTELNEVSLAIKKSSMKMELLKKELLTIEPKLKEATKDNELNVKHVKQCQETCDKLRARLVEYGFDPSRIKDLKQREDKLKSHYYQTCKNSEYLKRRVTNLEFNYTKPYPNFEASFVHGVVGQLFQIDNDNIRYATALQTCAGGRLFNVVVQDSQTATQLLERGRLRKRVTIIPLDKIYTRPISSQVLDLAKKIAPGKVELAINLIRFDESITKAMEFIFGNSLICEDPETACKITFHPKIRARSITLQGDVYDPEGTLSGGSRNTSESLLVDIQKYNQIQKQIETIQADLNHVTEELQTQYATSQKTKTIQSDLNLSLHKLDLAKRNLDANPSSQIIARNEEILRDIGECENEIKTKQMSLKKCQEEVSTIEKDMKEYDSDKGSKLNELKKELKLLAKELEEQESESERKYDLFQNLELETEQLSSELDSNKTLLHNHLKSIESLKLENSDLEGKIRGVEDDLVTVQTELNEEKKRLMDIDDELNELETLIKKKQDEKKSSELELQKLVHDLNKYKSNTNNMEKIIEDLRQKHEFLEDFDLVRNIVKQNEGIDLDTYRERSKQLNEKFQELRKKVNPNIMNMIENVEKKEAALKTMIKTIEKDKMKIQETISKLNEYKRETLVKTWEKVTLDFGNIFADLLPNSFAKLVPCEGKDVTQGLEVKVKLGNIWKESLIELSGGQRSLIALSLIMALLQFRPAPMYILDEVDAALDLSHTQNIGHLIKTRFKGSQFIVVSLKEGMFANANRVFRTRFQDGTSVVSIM

T2: Brn1-His12-HA3, kleisin subunit of S. cerevisiae condensin (S. cerevisiae) (UniProt P38170)
T2 sequence: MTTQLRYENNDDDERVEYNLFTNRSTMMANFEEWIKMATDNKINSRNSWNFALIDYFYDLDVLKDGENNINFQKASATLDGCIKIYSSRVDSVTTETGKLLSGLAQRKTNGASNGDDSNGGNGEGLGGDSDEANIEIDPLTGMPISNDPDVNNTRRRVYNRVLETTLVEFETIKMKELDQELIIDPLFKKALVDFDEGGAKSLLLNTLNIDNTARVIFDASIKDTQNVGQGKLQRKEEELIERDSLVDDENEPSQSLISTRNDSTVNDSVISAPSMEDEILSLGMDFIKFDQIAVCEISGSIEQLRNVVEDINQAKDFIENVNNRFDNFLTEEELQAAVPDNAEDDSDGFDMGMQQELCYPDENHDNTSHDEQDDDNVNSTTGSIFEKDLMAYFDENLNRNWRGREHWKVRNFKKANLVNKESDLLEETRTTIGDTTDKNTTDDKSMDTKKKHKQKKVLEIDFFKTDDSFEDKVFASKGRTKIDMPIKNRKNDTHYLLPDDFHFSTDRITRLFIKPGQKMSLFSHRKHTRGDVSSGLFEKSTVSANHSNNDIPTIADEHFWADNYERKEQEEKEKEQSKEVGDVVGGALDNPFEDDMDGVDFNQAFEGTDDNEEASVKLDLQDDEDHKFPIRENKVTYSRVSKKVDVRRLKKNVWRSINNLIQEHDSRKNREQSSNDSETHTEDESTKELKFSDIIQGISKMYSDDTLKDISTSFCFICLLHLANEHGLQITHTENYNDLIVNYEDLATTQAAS


Assays:
[1] = target: T1, Smc2 K639C (cross-linkable hinge condensin) (S. cerevisiae); test: cross-linking
[2] = target: T2, Brn1-His12-HA3, kleisin subunit of S. cerevisiae condensin (S. cerevisiae); test: co-purification

binding [1] | binding [2] | Binder
binds | – | Smc4 V721C (cross-linkable hinge condensin) (protein, UniProt Q12267 1-1418) MSDSPLSKRQKRKSAQEPELSLDQGDAEEDSQVENRVNLSENTPEPDLPALEASYSKSYTPRKLVLSSGENRYAFSQPTNSTTTSLHVPNLQPPKTSSRGRDHKSYSQSPPRSPGRSPTRRLELLQLSPVKNSRVELQKIYDRHQSSSKQQSRLFINELVLENFKSYAGKQVVGPFHTSFSAVVGPNGSGKSNVIDSMLFVFGFRANKMRQDRLSDLIHKSEAFPSLQSCSVAVHFQYVIDESSGTSRIDEEKPGLIITRKAFKNNSSKYYINEKESSYTEVTKLLKNEGIDLDHKRFLILQGEVENIAQMKPKAEKESDDGLLEYLEDIIGTANYKPLIEERMGQIENLNEVCLEKENRFEIVDREKNSLESGKETALEFLEKEKQLTLLRSKLFQFKLLQSNSKLASTLEKISSSNKDLEDEKMKFQESLKKVDEIKAQRKEIKDRISSCSSKEKTLVLERRELEGTRVSLEERTKNLVSKMEKAEKTLKSTKHSISEAENMLEELRGQQTEHETEIKDLTQLLEKERSILDDIKLSLKDKTKNISAEIIRHEKELEPWDLQLQEKESQIQLAESELSLLEETQAKLKKNVETLEEKILAKKTHKQELQDLILDLKKKLNSLKDERSQGEKNFTSAHLKLKEMQKVLNAHRQRAMEARSSLSKAQNKSKVLTALSRLQKSGRINGFHGRLGDLGVIDDSFDVAISTACPRLDDVVVDTCECAQHCIDYLRKNKLGYARFILLDRLRQFNLQPISTPENVPRLFDLVKPKNPKFSNAFYSVLRDTLVAQNLKQANNVAYGKKRFRVVTVDGKLIDISGTMSGGGNHVAKGLMKLGTNQSDKVDDYTPEEVDKIERELSERENNFRVASDTVHEMEEELKKLRDHEPDLESQISKAEMEADSLASELTLAEQQVKEAEMAYVKAVSDKAQLNVVMKNLERLRGEYNDLQSETKTKKEKIKGLQDEIMKIGGIKLQMQNSKVESVCQKLDILVAKLKKVKSASKKSGGDVVKFQKLLQNSERDVELSSDELKVIEEQLKHTKLALAENDTNMNETLNLKVELKEQSEQLKEQMEDMEESINEFKSIEIEMKNKLEKLNSLLTYIKSEITQQEKGLNELSIRDVTHTLGMLDDNKMDSVKEDVKNNQELDQEYRSCETQDESEIKDAETSCDNYHPMNIDETSDEVSRGIPRLSEDELRELDVELIESKINELSYYVEETNVDIGVLEEYARRLAEFKRRKLDLNNAVQKRDEVKEQLGILKKKRFDEFMAGFNIISMTLKEMYQMITMGGNAELELVDSLDPFSEGVTFSVMPPKKSWRNITNLSGGEKTLSSLALVFALHKYKPTPLYVMDEIDAALDFRNVSIVANYIKERTKNAQFIVISLRNNMFELAQQLVGVYKRDNRTKSTTIKNIDILNRT
– | binds | Smc4-StrepII3 of unmodified (wild-type) S. cerevisiae condensin (protein, UniProt Q12267 1-1418) MSDSPLSKRQKRKSAQEPELSLDQGDAEEDSQVENRVNLSENTPEPDLPALEASYSKSYTPRKLVLSSGENRYAFSQPTNSTTTSLHVPNLQPPKTSSRGRDHKSYSQSPPRSPGRSPTRRLELLQLSPVKNSRVELQKIYDRHQSSSKQQSRLFINELVLENFKSYAGKQVVGPFHTSFSAVVGPNGSGKSNVIDSMLFVFGFRANKMRQDRLSDLIHKSEAFPSLQSCSVAVHFQYVIDESSGTSRIDEEKPGLIITRKAFKNNSSKYYINEKESSYTEVTKLLKNEGIDLDHKRFLILQGEVENIAQMKPKAEKESDDGLLEYLEDIIGTANYKPLIEERMGQIENLNEVCLEKENRFEIVDREKNSLESGKETALEFLEKEKQLTLLRSKLFQFKLLQSNSKLASTLEKISSSNKDLEDEKMKFQESLKKVDEIKAQRKEIKDRISSCSSKEKTLVLERRELEGTRVSLEERTKNLVSKMEKAEKTLKSTKHSISEAENMLEELRGQQTEHETEIKDLTQLLEKERSILDDIKLSLKDKTKNISAEIIRHEKELEPWDLQLQEKESQIQLAESELSLLEETQAKLKKNVETLEEKILAKKTHKQELQDLILDLKKKLNSLKDERSQGEKNFTSAHLKLKEMQKVLNAHRQRAMEARSSLSKAQNKSKVLTALSRLQKSGRINGFHGRLGDLGVIDDSFDVAISTACPRLDDVVVDTVECAQHCIDYLRKNKLGYARFILLDRLRQFNLQPISTPENVPRLFDLVKPKNPKFSNAFYSVLRDTLVAQNLKQANNVAYGKKRFRVVTVDGKLIDISGTMSGGGNHVAKGLMKLGTNQSDKVDDYTPEEVDKIERELSERENNFRVASDTVHEMEEELKKLRDHEPDLESQISKAEMEADSLASELTLAEQQVKEAEMAYVKAVSDKAQLNVVMKNLERLRGEYNDLQSETKTKKEKIKGLQDEIMKIGGIKLQMQNSKVESVCQKLDILVAKLKKVKSASKKSGGDVVKFQKLLQNSERDVELSSDELKVIEEQLKHTKLALAENDTNMNETLNLKVELKEQSEQLKEQMEDMEESINEFKSIEIEMKNKLEKLNSLLTYIKSEITQQEKGLNELSIRDVTHTLGMLDDNKMDSVKEDVKNNQELDQEYRSCETQDESEIKDAETSCDNYHPMNIDETSDEVSRGIPRLSEDELRELDVELIESKINELSYYVEETNVDIGVLEEYARRLAEFKRRKLDLNNAVQKRDEVKEQLGILKKKRFDEFMAGFNIISMTLKEMYQMITMGGNAELELVDSLDPFSEGVTFSVMPPKKSWRNITNLSGGEKTLSSLALVFALHKYKPTPLYVMDEIDAALDFRNVSIVANYIKERTKNAQFIVISLRNNMFELAQQLVGVYKRDNRTKSTTIKNIDILNRT
– | binds | Smc2 of unmodified (wild-type) S. cerevisiae condensin (protein, UniProt P38989 1-1170) MKVEELIIDGFKSYATRTVITDWDPQFNAITGLNGSGKSNILDAICFVLGIASMSTVRASSLQDLIYKRGQAGVTKASVTIVFDNTDKSNSPIGFTNSPQISVTRQVVLGGTSKYLINGHRAPQQSVLQLFQSVQLNINNPNFLIMQGKITKVLNMKPSEILSLIEEAAGTKMFEDRREKAERTMSKKETKLQENRTLLTEEIEPKLEKLRNEKRMFLEFQSTQTDLEKTERIVVSYEYYNIKHKHTSIRETLENGETRMKMLNEFVKKTSEEIDSLNEDVEEIKLQKEKELHKEGTISKLENKENGLLNEISRLKTSLSIKVENLNDTTEKSKALESEIASSSAKLIEKKSAYANTEKDYKMVQEQLSKQRDLYKRKEELVSTLTTGISSTGAADGGYNAQLAKAKTELNEVSLAIKKSSMKMELLKKELLTIEPKLKEATKDNELNVKHVKQCQETCDKLRARLVEYGFDPSRIKDLKQREDKLKSHYYQTCKNSEYLKRRVTNLEFNYTKPYPNFEASFVHGVVGQLFQIDNDNIRYATALQTCAGGRLFNVVVQDSQTATQLLERGRLRKRVTIIPLDKIYTRPISSQVLDLAKKIAPGKVELAINLIRFDESITKAMEFIFGNSLICEDPETAKKITFHPKIRARSITLQGDVYDPEGTLSGGSRNTSESLLVDIQKYNQIQKQIETIQADLNHVTEELQTQYATSQKTKTIQSDLNLSLHKLDLAKRNLDANPSSQIIARNEEILRDIGECENEIKTKQMSLKKCQEEVSTIEKDMKEYDSDKGSKLNELKKELKLLAKELEEQESESERKYDLFQNLELETEQLSSELDSNKTLLHNHLKSIESLKLENSDLEGKIRGVEDDLVTVQTELNEEKKRLMDIDDELNELETLIKKKQDEKKSSELELQKLVHDLNKYKSNTNNMEKIIEDLRQKHEFLEDFDLVRNIVKQNEGIDLDTYRERSKQLNEKFQELRKKVNPNIMNMIENVEKKEAALKTMIKTIEKDKMKIQETISKLNEYKRETLVKTWEKVTLDFGNIFADLLPNSFAKLVPCEGKDVTQGLEVKVKLGNIWKESLIELSGGQRSLIALSLIMALLQFRPAPMYILDEVDAALDLSHTQNIGHLIKTRFKGSQFIVVSLKEGMFANANRVFRTRFQDGTSVVSIM
